Drawing on patent US20260176378A1, this text covers binding for 2 molecules.

For the assay, the target named is human plasma kallikrein (human). As to the kind of experiment: Biacore, IgG captured on anti-human Fc, 100 nM pKal.

Results are given in words; binding and its absence hold for the method and conditions named. A result given as binding can be weak or reduced; the word gives no strength.

B1: X67-D03 (antibody, human IgG1, V domains shown)
VH: EVQLLESGGGLVQPGGSLRLSCAASGFTFSAYSMIWVRQAPGKGLEWVSYIRPSGGRTTYADSVKGRFTISRDNSKNTLYLQMNSLRAEDTAVYYCARGGLLLWNRELKSNYFDYWGQGTLVTVSS
VL: DIQMTQSPSSLSAFVGDRVTITCRASQPIDNYLNWYHQKPGKAPKLLIYAASRLQSGVPSRLSGSGFGTDFTLTISSLQPEDFGNYYCQQSYTVPYTFGGGTKVEIR
As to B1, the binding result is reported as “binds”.

B2: X81-B01 (antibody, V domains shown)
VH: EVQLLESGGGLVQPGGSLRLSCAASGFTFSHYLMTWVRQAPGKGLEWVSYISPSGGHTIYADSVKGRFTISRDNSKNTLYLQMNSLRAEDTAVYYCARVARGIAARSRTSYFDYWGQGTLVTVSS
VL: EIVLTQSPGTLSLSPGERATLSCRTSQFVNSNYLAWYQQKPGQAPRLLIYGASSRATGIPDRFSGSGSGTDFTLTISRLEPEDFAVYYCQQSSRTPWTFGQGTKVEIK
On to B2, for which the binding entry is “binds”.
